Measurements published in patent US12103941B2, “Radiation-activatable platinum complex, its preparation and therapeutic use” (City University of Hong Kong, priority 2022, dated 2024).

Assay: ROS generation upon sono-activation (SOSG fluorescence, EPR with TEMP or DMPO)
Settings: FUS activation 4 W, 15 min

**Q.** For CCCN1/C(=C/C=C2\CCCC(/C=C/C3=[N+](CCC)c4ccccc4C3(C)C)=C2Oc2ccc(CCC(=O)[O][Pt]3([NH2])([NH2])([OH])[O]C(=O)C4(CCC4)C(=O)[O]3)cc2)C(C)(C)c2ccccc21 [complex 1, cyaninplatin], which “hydroxyl radical generation (EPR with DMPO)” value is on record?
**A.** The value was “no signal pulse was observed”.

**Q.** And the “singlet oxygen generation (SOSG emission, EPR with TEMP)” value?
**A.** Its value is “release of singlet oxygen”.
